From PubChem BioAssay record AID1159506 (NCATS, 2015).

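Luminescence from an EWS-FLI1 target-promoter (NR0B1) reporter, set against a CMV-promoter reporter, two days after silencing single genes in TC32 Ewing sarcoma cells.
Each siRNA was applied at 20 nM.
A z-score of the log NR0B1-over-CMV signal, less the median of siRNAs with the same seed; more negative means a stronger specific loss of the NR0B1 reporter.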

The strongest results of the screen are mostly left out here.
Sequences are the guide (antisense) strand, without overhang.

AGAAUUUCACCCAUGUUUU against RIDA gave seed-corrected z-score -1.794.
UGUCCGAAUAGUCUGGUUG against PPP1R10 gave seed-corrected z-score -0.2172.
UUCGAUUACAAAGGAUUGG against PLCL1 gave seed-corrected z-score 0.2672.
AAAACUUUCGAAAAUCUGC against SIRT5 gave seed-corrected z-score 0.9755.
UAAGCAUCCACUGCAUAGC against GPR143 gave seed-corrected z-score -1.204.
UUCUUGAUAUCGAUAGACC against IL1RAPL1 gave seed-corrected z-score 0.5242.
UGAAUAGUCACAGAAAAAG against OR5P3 gave seed-corrected z-score 0.8075.
UAGUAUACAUUUCACAGGC against ESCO1 gave seed-corrected z-score -0.1082.
UGUUCGAUAGUGAACUUCG against DNAH11 gave seed-corrected z-score 0.773.
UUGCUGCUAAAGUCCAUGC against TBL2 gave seed-corrected z-score 0.3482.
AUUUGAAUGAAAUAUCUGC against ZNF620 gave seed-corrected z-score 0.6436.
AUAGGGUACAUCUUGAUGG against TRIM49 gave seed-corrected z-score 0.2714.
UGUUGAUCCAGUUCAUUGU against TBX20 gave seed-corrected z-score -0.04944.
UAAGUUUGUAAGAGUUUCA against HACD3 gave seed-corrected z-score 0.6356.
UUCUCCUCUAGUUUCUUGG against SDC4 gave seed-corrected z-score 0.8841.
UUCCCUCCUAAGCACCUCC against ZBED2 gave seed-corrected z-score -0.8232.
UAUAUGACAAGCGAGACAG against POLR3B gave seed-corrected z-score -0.7845.
UAGAGUACGUGUAACAAGC against ACSL5 gave seed-corrected z-score 0.3758.
AACAUUAUGGAGGAUAUCC against SLC16A1 gave seed-corrected z-score 1.578.
AGUUGUCAAAGGAUAUUGC against GABRB3 gave seed-corrected z-score -0.08141.
UACUCUUUUAAUUCCUUUU against LINC00290 gave seed-corrected z-score -0.03889.
UUCAAUCUCUGACAUUUGC against SFXN5 gave seed-corrected z-score 0.008165.
UAGUCGAUCCCGUUACUGU against RAB40C gave seed-corrected z-score -0.1512.
UAAUUUCUGGGAACGGAUC against CCDC151 gave seed-corrected z-score 0.1707.
UUUCUUUUUGCAACUGAAC against NOVA1 gave seed-corrected z-score -0.788.
UUCUCGCAGGUUAAUGUUC against LSM4 gave seed-corrected z-score -0.4431.
UAAUCGAAACUGGUAAAGC against ACTR8 gave seed-corrected z-score 0.09373.
UUCAGCAUGACGAAGUCGU against RPL3L gave seed-corrected z-score -0.6805.
UUAGAGACUGGAUAAUCUC against NAT10 gave seed-corrected z-score -0.02616.
UUUGUAACAAUAUGGAUUA against LOC401068 gave seed-corrected z-score -1.304.
AAGGAUUAAUUCAUCUUUC against RPL9 gave seed-corrected z-score -1.304.
UUGUGGAUAACGGCCACGU against NFKBIB gave seed-corrected z-score -0.5189.
AAAGGUGUCAAAGAGACUU against DCUN1D3 gave seed-corrected z-score -0.1361.
UUAUAGUUUCGGAAAUUCC against SLC25A33 gave seed-corrected z-score -1.514.
UCUCCUAAGUCCUCGAUGG against REEP2 gave seed-corrected z-score 0.2239.
UGGAGCACAACAGCUGUCU against CDRT15L2 gave seed-corrected z-score -0.8929.
AUUGGGAUUCUCAAAGUUC against EDN2 gave seed-corrected z-score 1.569.
CAAGGAAAGACCAAGGUCC against HFE gave seed-corrected z-score 0.2049.
UGAUGGAUAGCAUAAAUCU against RPS16P1 gave seed-corrected z-score 1.083.
UGUUGUUGUACUCUCUCUC against GABBR2 gave seed-corrected z-score 0.1898.
UUGGAUAACUAGGACCUUC against CYB5R4 gave seed-corrected z-score 0.9714.
UUUAACCAGACGGUAUUCC against LILRA5 gave seed-corrected z-score -0.7313.
UCCGUAAAGACGUAGAGUG against HHATL gave seed-corrected z-score -0.7341.
UAGUCGUCCAAGUAAUGCC against SLC4A11 gave seed-corrected z-score 0.6891.
UAGUCACAAAGAUCUCUGG against RPL23AP2 gave seed-corrected z-score -0.2641.
AAUCUAUCAACAUGGUGUG against MIOS gave seed-corrected z-score -0.2265.
UGAGGUGUCAGGGUAGAGU against AHSP gave seed-corrected z-score -1.265.
UUCUUGUCCAUGUCGGAGG against RNF10 gave seed-corrected z-score -0.7044.
UAACUCGAAAGUGUAAAGC against EPB41L4B gave seed-corrected z-score 1.015.
AAACUUCUAAGAACAUCCC against BIK gave seed-corrected z-score -0.2574.

For reference, 3 entries once more:

- UUCUUGAUAUCGAUAGACC against IL1RAPL1 : seed-corrected z-score 0.5242
- UUCUUGUCCAUGUCGGAGG against RNF10 : seed-corrected z-score -0.7044
- UUCGAUUACAAAGGAUUGG against PLCL1 : seed-corrected z-score 0.2672